Screening data

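A cell line overexpressing EP4 prostanoid receptors, stimulated with a low (about EC15) PGE2 dose; cAMP read by HTRF FRET after a short room-temperature incubation.
Compounds were tested at 20 µM final. A low (about EC15) PGE2 dose was present.
Percent cAMP induction as a fraction of the 1 µM PGE2 response, averaged over three replicates; a higher value means more cAMP.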

Values are in %.
Common to all entries: measured here: EP4 receptor counter-screen.
Part of the compounds only, not a random draw; the main read-out is not listed here.

| # | compound | tested on / at | cAMP induction (%) |
|---|---|---|---|
| 1 | `c1ccc2c(c1)OCC(c1csc3ncnc(N4CCCCC4)c13)O2` (stereo not shown) | percent of 1 uM PGE2 response; plus low (about EC15) PGE2 agonist | 3.25 |
| 2 | `Clc1ccc(Cl)c(Nc2ccnc(SCc3ccccc3)n2)c1` | percent of 1 uM PGE2 response; plus low (about EC15) PGE2 agonist | 17.75 |
| 3 | `Cc1ccc(N=Cc2cc(Cc3ccccc3Cl)cc([N+](=O)[O-])c2O)c(O)c1` | percent of 1 uM PGE2 response; plus low (about EC15) PGE2 agonist | -3.503 |
| 4 | `Cc1cc(C)c(C)c(Cn2c(CO)nc3ccccc32)c1C` | percent of 1 uM PGE2 response; plus low (about EC15) PGE2 agonist | 6.467 |
| 5 | `c1ccc(-c2noc(CN3CCN(C(c4ccccc4)c4ccccc4)CC3)n2)cc1` | percent of 1 uM PGE2 response; plus low (about EC15) PGE2 agonist | 11.04 |
| 6 | `CCc1nnc2n1N=C(c1ccc(-c3cc(Cl)ccc3Cl)o1)CS2` | percent of 1 uM PGE2 response; plus low (about EC15) PGE2 agonist | 7.813 |
| 7 | `C/C(=N\N=C(c1ccccc1)c1ccccc1)c1ccco1` | percent of 1 uM PGE2 response; plus low (about EC15) PGE2 agonist | 11.62 |
| 8 | `CC1CCCCN1C(=O)/C(=C\c1ccccc1)c1ccccc1` (stereo not shown) | percent of 1 uM PGE2 response; plus low (about EC15) PGE2 agonist | -9.83 |
| 9 | `C=CCOc1nc(-c2ccncc2)nc2ccccc12` | percent of 1 uM PGE2 response; plus low (about EC15) PGE2 agonist | 6.76 |
| 10 | `O=C(Nc1ccccc1)c1nn(-c2cccc(C(F)(F)F)c2)ccc1=O` | percent of 1 uM PGE2 response; plus low (about EC15) PGE2 agonist | 5.693 |
| 11 | `CCOC(=O)c1c(NC(=O)Cc2cccs2)sc(C)c1C` | percent of 1 uM PGE2 response; plus low (about EC15) PGE2 agonist | -2.587 |
| 12 | `Cc1cccc(CSc2ncnc3ccccc23)c1` | percent of 1 uM PGE2 response; plus low (about EC15) PGE2 agonist | -5.243 |
| 13 | `Cc1cc(C)c(N=C2CCCN2Cc2ccccc2)c(C#N)c1` | percent of 1 uM PGE2 response; plus low (about EC15) PGE2 agonist | -2.647 |
| 14 | `CCOc1cc(-c2noc(-c3ccncc3)n2)cc(Br)c1OC` | percent of 1 uM PGE2 response; plus low (about EC15) PGE2 agonist | 7.347 |
| 15 | `C(=N\N(Cc1ccccc1)c1ccccc1)/c1cccnc1` | percent of 1 uM PGE2 response; plus low (about EC15) PGE2 agonist | 0.9067 |
| 16 | `O=C(Nc1ccccc1N1CCOCC1)c1ccc2ccccc2n1` | percent of 1 uM PGE2 response; plus low (about EC15) PGE2 agonist | -3.36 |
| 17 | `CCn1c2ccc(OC)cc2c2nc3ccccc3nc21` | percent of 1 uM PGE2 response; plus low (about EC15) PGE2 agonist | 6.353 |
| 18 | `Cc1cccc(-c2nc(=S)c3c(n2Cc2ccco2)CCCC3)c1` | percent of 1 uM PGE2 response; plus low (about EC15) PGE2 agonist | 10.09 |
| 19 | `O=C(OCc1ccc(Cl)cc1)c1ccccc1C(=O)c1ccccc1` | percent of 1 uM PGE2 response; plus low (about EC15) PGE2 agonist | -6.27 |
| 20 | `CCCCc1nc(N2CCOCC2)c(C#N)c2c1CCCC2` | percent of 1 uM PGE2 response; plus low (about EC15) PGE2 agonist | 0.46 |
| 21 | `O=S(=O)(C=C(c1ccccc1)c1ccccc1)c1ccccc1` | percent of 1 uM PGE2 response; plus low (about EC15) PGE2 agonist | -8.91 |
| 22 | `CCN(Cc1ccccc1)C(c1cc2cc(C)cc(C)c2[nH]c1=O)c1nnnn1CCOC` (stereo not shown) | percent of 1 uM PGE2 response; plus low (about EC15) PGE2 agonist | 5.85 |
| 23 | `COCC(=O)Nc1sc2c(c1C(=O)OC)CCC(C)C2` (stereo not shown) | percent of 1 uM PGE2 response; plus low (about EC15) PGE2 agonist | 8.323 |
| 24 | `Cc1ccc(Cl)cc1NC1=NC(=S)N(C(C)C)C12CCCCC2` | percent of 1 uM PGE2 response; plus low (about EC15) PGE2 agonist | 2.473 |
| 25 | `CCOc1ccc(C2=Nn3c(nnc3-c3ccccc3OC)SC2)cc1` | percent of 1 uM PGE2 response; plus low (about EC15) PGE2 agonist | -6.223 |
| 26 | `CSc1nc2nccc(-c3ccc(-c4ccccc4)cc3)n2n1` | percent of 1 uM PGE2 response; plus low (about EC15) PGE2 agonist | 1.05 |
| 27 | `C=CCOc1ccccc1CNc1ccccc1C` | percent of 1 uM PGE2 response; plus low (about EC15) PGE2 agonist | 4.343 |

From PubChem BioAssay record AID1080 (Emory University Molecular Libraries Screening Center, 2008).